This note sets out measurements from the supplement of paper PMC9744312.

SMILES strings stand for the structures. Where a name gives a salt, the structure may show the parent alone. The list shows a part of the results. The data scatter; read single values as rough.

This assay relates to Peyronie's disease tunica albuginea primary fibroblasts. The experiment in a line: cell viability (DRAQ5 nuclear stain) relative to TGF-beta1-only control; higher = more viable cells. The following applies: 10 µM; TGF-beta1 10 ng/mL; 72 h.
What is called cell viability is a read-out of living cells in per cent, often relative to untreated cells. For `CC(C)Oc1ccc(-c2nc(-c3cccc4c3CC[C@@H]4NCCO)no2)cc1C#N` [Ozanimod (RPC1063)], the cell viability stood at 88.2%.

For `N=C(N)NC(=N)NCCc1ccccc1` [Phenformin HCl], the cell viability came out at 91.4%.

`CO[C@H]1/C=C/O[C@@]2(C)Oc3c(C)c(O)c4c(O)c(c(/C=N/N5CCN(C6CCCC6)CC5)c(O)c4c3C2=O)NC(=O)/C(C)=C\C=C\[C@H](C)[C@H](O)[C@@H](C)[C@@H](O)[C@@H](C)[C@H](OC(C)=O)[C@@H]1C` [Rifapentine]: the cell viability stood at 79.9%.

Turning to `C[C@H]1O[C@H](O[C@H]2[C@H](O)[C@@H](O)[C@@H](O[C@H]3[C@H](O)[C@@H](O)C(O)O[C@@H]3CO)O[C@@H]2CO)[C@H](O)[C@@H](O)[C@@H]1N[C@H]1C=C(CO)[C@@H](O)[C@H](O)[C@H]1O` (some centres not stated) [Acarbose], the cell viability is 98.9%.

For the molecule `CNC1CCCN(c2c(F)cc3c(=O)c(C(=O)O)cn(C4CC4)c3c2OC)C1` (configuration not stated) [Balofloxacin], the cell viability was 92.7%.

For the molecule `CC[C@H]1[C@@H](O)[C@@H]2[C@H](CC[C@]3(C)[C@@H]([C@H](C)CCC(=O)O)CC[C@@H]23)[C@@]2(C)CC[C@@H](O)C[C@@H]12` [Obeticholic Acid], the cell viability was determined as 95.8%.

For `C=C1CC[C@H](O)C/C1=C/C=C1\CCC[C@]2(C)[C@@H]([C@H](C)CCCC(C)C)CC[C@@H]12` [cholecalciferol (Vitamin D3)], the cell viability was determined as 73.2%.

As for `CCCc1cc(C(N)=S)ccn1` [Protionamide], the cell viability stood at 93.9%.

With `C#Cc1cccc(Nc2ncnc3cc(OC)c(OCCCCCCC(=O)NO)cc23)c1`, the cell viability amounted to 40.1%.

With `CC(=O)S[C@@H]1CC2=CC(=O)CC[C@]2(C)[C@H]2CC[C@@]3(C)[C@@H](CC[C@@]34CCC(=O)O4)[C@H]12` [Spironolactone], the cell viability was 86.3%.

Regarding `CCOC(=O)[C@H](CCc1ccccc1)N[C@H]1CS[C@H](c2cccs2)CN(CC(=O)O)C1=O` [Temocapril HCl], the cell viability worked out at 93.2%.

Turning to `O=C1OCCN1/N=C/c1ccc([N+](=O)[O-])o1` [Furazolidone], the cell viability was determined as 91.1%.

As for `CCCCC(F)(F)[C@@]1(O)CC[C@H]2[C@@H](CC(=O)[C@@H]2CCCCCCC(=O)O)O1` [Lubiprostone], the cell viability stood at 95.4%.

As for `CN(C)N(C)C(=O)[C@@]1(Cc2ccccc2)CCCN(C(=O)[C@@H](Cc2c[nH]c3ccccc23)NC(=O)C(C)(C)N)C1` [Anamorelin], the cell viability worked out at 79.9%.

Regarding `O=S(=O)(O)c1cc(O)ccc1O` [Ethamsylate], the cell viability was 103%.

`Cc1c(O)c(=O)ccn1C` [Deferiprone]: the cell viability was determined as 102%.

Consider `CCC(=O)O[C@]1(C(=O)CCl)[C@@H](C)C[C@H]2[C@@H]3CCC4=CC(=O)C=C[C@]4(C)[C@@]3(F)[C@@H](O)C[C@@]21C` [Clobetasol propionate], for which the cell viability was found to be 71.6%.
